{
  "sequences": {"note": "Amino acid sequences for entries named in this document (tags omitted). Residues count along the entry.", "UniProt P02787, residues 20-698": "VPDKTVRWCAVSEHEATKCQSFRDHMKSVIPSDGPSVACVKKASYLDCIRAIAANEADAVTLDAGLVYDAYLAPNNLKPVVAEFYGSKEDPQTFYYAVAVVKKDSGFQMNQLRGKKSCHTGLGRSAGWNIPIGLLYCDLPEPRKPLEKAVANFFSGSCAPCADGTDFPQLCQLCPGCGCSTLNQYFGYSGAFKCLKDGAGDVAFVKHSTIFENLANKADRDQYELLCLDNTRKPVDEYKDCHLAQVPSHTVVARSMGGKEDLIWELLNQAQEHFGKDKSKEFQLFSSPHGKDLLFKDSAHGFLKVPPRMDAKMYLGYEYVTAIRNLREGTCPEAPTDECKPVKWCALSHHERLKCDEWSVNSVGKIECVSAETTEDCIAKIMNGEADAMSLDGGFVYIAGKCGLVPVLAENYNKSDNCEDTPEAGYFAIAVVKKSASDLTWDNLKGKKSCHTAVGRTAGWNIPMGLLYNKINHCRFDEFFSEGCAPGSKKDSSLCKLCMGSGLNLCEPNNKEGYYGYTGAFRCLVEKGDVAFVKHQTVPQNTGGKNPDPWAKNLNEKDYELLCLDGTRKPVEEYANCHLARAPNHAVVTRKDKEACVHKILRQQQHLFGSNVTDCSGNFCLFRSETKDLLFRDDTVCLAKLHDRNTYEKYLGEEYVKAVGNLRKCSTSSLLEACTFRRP", "UniProt P04406": "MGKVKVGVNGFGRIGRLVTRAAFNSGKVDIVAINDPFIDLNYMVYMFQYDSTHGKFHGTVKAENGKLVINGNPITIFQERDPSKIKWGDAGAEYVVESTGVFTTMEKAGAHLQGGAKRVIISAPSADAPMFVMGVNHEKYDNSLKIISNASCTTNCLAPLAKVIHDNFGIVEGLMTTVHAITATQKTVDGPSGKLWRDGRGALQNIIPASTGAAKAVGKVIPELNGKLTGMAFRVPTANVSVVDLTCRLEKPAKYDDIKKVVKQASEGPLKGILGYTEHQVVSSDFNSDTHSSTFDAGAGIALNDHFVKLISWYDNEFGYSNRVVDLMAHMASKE"},
  "source": "paper doi:10.1101/2024.01.05.574348",
  "target": "biotinylated apo-transferrin (UniProt P02787)",
  "assay": "pull-down",
  "note": "Results are given in words; binding and its absence hold for the method and conditions named. In cells and extracts the contact can be indirect. Some results given as binding are weak or reduced against the parent protein; the word gives no strength.",
  "data": [
    {"substance": "Glyceraldehyde-3-phosphate dehydrogenase (GAPDH) (from UniProt P04406 1-335)", "values": [
      {"measurement": "binding", "result": "binds"}
    ]}
  ]
}
